These results are taken from US9650379B2 (CHONG KUN DANG PHARMACEUTICAL CORP., priority 2013, dated 2017).

Protein sequences, listed by entry. Tags and fused reporters are not part of them.
UniProt Q9UBN7, whole entry: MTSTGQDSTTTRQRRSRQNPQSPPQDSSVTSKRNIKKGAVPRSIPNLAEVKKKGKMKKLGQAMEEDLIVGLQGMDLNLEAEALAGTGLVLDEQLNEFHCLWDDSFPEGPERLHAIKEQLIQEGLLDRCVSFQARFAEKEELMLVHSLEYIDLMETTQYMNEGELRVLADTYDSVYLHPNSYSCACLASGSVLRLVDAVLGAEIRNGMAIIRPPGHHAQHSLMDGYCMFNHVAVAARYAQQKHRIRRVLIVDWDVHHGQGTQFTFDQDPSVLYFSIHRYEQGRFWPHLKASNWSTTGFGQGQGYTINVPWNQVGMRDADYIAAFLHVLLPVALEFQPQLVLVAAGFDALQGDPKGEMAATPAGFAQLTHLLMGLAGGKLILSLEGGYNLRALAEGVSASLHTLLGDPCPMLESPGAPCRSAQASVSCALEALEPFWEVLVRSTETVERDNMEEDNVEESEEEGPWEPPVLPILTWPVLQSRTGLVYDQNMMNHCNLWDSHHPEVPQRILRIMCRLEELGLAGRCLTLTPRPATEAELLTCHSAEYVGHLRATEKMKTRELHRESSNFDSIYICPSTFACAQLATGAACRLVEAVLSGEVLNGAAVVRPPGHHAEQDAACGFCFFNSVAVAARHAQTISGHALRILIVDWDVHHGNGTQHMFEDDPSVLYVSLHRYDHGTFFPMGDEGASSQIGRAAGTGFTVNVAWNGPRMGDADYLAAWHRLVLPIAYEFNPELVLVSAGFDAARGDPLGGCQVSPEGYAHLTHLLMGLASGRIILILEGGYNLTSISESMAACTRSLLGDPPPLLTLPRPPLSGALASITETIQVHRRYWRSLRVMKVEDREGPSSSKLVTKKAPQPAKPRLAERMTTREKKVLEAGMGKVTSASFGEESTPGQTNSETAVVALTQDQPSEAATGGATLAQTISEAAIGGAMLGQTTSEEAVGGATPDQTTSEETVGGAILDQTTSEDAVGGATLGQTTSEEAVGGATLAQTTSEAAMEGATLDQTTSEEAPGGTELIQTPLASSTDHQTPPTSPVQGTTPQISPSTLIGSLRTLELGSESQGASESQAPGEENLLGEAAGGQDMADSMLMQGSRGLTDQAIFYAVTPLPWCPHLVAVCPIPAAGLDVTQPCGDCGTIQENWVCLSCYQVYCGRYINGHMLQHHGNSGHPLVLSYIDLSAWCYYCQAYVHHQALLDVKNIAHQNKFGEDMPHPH
UniProt Q13547, whole entry: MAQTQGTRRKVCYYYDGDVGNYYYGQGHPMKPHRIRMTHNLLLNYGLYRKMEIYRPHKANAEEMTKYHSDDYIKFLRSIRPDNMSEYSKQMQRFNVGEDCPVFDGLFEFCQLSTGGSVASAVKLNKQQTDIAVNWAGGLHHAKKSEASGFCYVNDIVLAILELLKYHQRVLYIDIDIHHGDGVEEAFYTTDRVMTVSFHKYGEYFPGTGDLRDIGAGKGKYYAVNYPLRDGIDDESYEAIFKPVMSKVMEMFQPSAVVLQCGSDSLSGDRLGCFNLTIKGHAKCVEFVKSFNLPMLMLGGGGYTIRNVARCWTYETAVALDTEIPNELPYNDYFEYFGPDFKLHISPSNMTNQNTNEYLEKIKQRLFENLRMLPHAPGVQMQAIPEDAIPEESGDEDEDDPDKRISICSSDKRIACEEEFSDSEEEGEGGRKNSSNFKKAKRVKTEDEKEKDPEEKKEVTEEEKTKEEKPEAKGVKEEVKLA

For one experiment, the target named is HDAC6 human recombinant (Homo sapiens, UniProt Q9UBN7). The experiment can be described thus: Inhibition of HDAC6 activity (fluorimetric assay). As to conditions: read-out: HDAC6; test concentrations 0.1, 1, 10, 100 and 1000 nM; 37° C., 60 minutes. As to the method: Assays were performed using a HDAC1 fluorimetric drug discovery assay kit (Enzolifesciences: BML-AK511) and a HDAC6 human recombinant (Calbiochem: 382180). The assay mixture of the kit was treated with a test compound at concentrations of 100, 1000 and 10000 nM for HDAC1 assay and concentrations of 0.1, 1, 10, 100 and 1000 nM for HDAC6 assay. The treated assay mixture was allowed to react at 37° C. for 60 minutes, and then was treated with a developer and allowed to stand at 37° C. for 30 minutes, followed by quantification of the fluorescence.

A further experiment addresses HDAC1 (Homo sapiens, UniProt Q13547). The experiment in a line: Inhibition of HDAC1 activity (HDAC1 fluorimetric drug discovery assay kit). As to conditions: read-out: HDAC1; test concentrations 100, 1000 and 10000 nM; 37° C., 60 minutes.

The match of structure and compound is tentative.

Consider `CC(C)(C)OC(=O)N1CC=C(c2cncc3ccn(Cc4ccc(C(=O)NO)cc4)c23)CC1`, for which the values for the IC50 on HDAC6 human recombinant and at HDAC1 were 0.499 µM and 13.6 µM, respectively.
